Data as given in PubChem BioAssay AID1259308 (NCATS, 2017)
Test: 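Knock-downs that increase output of a recombinant reporter protein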 (primary screen). Cells: human HEK293 embryonic kidney cells stably expressing firefly luciferase (HEK-CMV-Luc2-Hygro). Knock-down reagent: single siRNA against human genes, 0.8 pmol siRNA per well. Duration: 72 h. Measurement: 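Luciferase light (ONE-Glo) measured on one replicate plate set and viability (CellTiter-Glo) on the other, scaled to a negative control siRNA, with robust z-scores and luciferase per cell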. Scale: total luciferase, z-score and total luciferase, % of control: higher = more reporter protein produced; luciferase per cell, z-score: higher = more reporter output per viable cell; viable cells, % of control: higher = more viable cells. Call rule: 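Active when the median/MAD z-score for overall luciferase is greater than 3; a gene was taken forward for validation with new siRNAs if at least two of its three siRNAs passed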. Meaning of the calls: active = raised luciferase; inactive = no rise.
The deposit covers about 59,000 reagents; shown is an unselected part. Of all reagents, about 1,510 (2.6%) got an active call. 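Calls use total luciferase alone and ignore viability, so some active siRNAs may act by altering cell number.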

no.	gene knocked down	PubChem SID	total luciferase, z-score	total luciferase, % of control	luciferase per cell, z-score	viable cells, % of control	outcome
1	C4orf50 (GeneID 389197)	SID160733231	0.31	88.1	-0.0338	99.3	inactive
2	C4orf50 (GeneID 389197)	SID160733232	0.578	93.4	0.157	100	inactive
3	C4orf50 (GeneID 389197)	SID160766127	1.03	102	1.5	77.2	inactive
4	NR5A2 (GeneID 2494)	SID160767480	-0.208	77.8	-0.72	105	inactive
5	NR5A2 (GeneID 2494)	SID160767488	-0.00249	81.8	0.0053	91.3	inactive
6	NR5A2 (GeneID 2494)	SID160767493	-0.535	71.2	-0.108	81.9	inactive
7	PATZ1 (GeneID 23598)	SID160736651	1.03	102	0.619	97.1	inactive
8	PATZ1 (GeneID 23598)	SID160736652	0.337	88.6	0.324	90.9	inactive
9	PATZ1 (GeneID 23598)	SID160736653	-0.752	66.9	-0.335	81.7	inactive
10	RTL5 (GeneID 340526)	SID160764435	-0.724	67.5	0.117	73.1	inactive
11	RTL5 (GeneID 340526)	SID160764436	0.0753	83.4	-0.0145	93.5	inactive
12	RTL5 (GeneID 340526)	SID160764438	0.861	99	1.3	78.7	inactive
13	ZBTB8A (GeneID 653121)	SID160728023	0.208	86	0.277	89.4	inactive
14	ZBTB8A (GeneID 653121)	SID160728024	0.776	97.3	0.162	104	inactive
15	ZBTB8A (GeneID 653121)	SID160728025	0.595	93.7	-0.344	115	inactive
16	AMZ2P1 (GeneID 201283)	SID160760971	-0.992	62.2	-0.286	74.9	inactive
17	AMZ2P1 (GeneID 201283)	SID160760972	-1.3	56.1	-1.59	95.3	inactive
18	AMZ2P1 (GeneID 201283)	SID160760973	-1.66	48.8	-0.797	67.3	inactive
19	LOC389834 (GeneID 389834)	SID160766290	0.16	85.1	-0.298	103	inactive
20	LOC389834 (GeneID 389834)	SID160766291	-0.16	78.7	-0.621	104	inactive
21	LOC389834 (GeneID 389834)	SID160766292	-0.68	68.4	-0.728	92.5	inactive
22	ST6GALNAC3 (GeneID 256435)	SID160762447	1.56	113	1.78	79	inactive
23	ST6GALNAC3 (GeneID 256435)	SID160762448	-0.419	73.6	-0.389	91.1	inactive
24	ST6GALNAC3 (GeneID 256435)	SID160762449	-0.138	79.1	-0.0959	90.7	inactive

Taken from above.
For “total luciferase, % of control”, C4orf50 (GeneID 389197) [SID160733231] shows 88.1
For “total luciferase, % of control”, RTL5 (GeneID 340526) [SID160764436] reads 83.4
